PubChem BioAssay AID652272 | Drosophila RNAi Screening Center | 2013

Purpose: 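Genes whose knock-down decreases or increases Hedgehog reporter output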 (primary screen)
System: Drosophila clone 8 (Cl8) cells
Knock-down reagent: long dsRNA against Drosophila genes
Read-out: 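Plate reader light from a firefly reporter under a ptc promoter fragment that responds to Hedgehog, with Renilla light as transfection reference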
Scale: firefly Hh reporter signal: higher = more ptc reporter light; Renilla reference signal: higher = more Renilla control light
Rule for the call: 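Hit when the z-score averaged over two replicates is under -2 or over +3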
Calls: active = hit: reporter lowered or raised; inactive = not a hit
In all, the deposit lists about 21,000 reagents; below is a random part of those that have a named target and a result. Of all reagents, 503 (2.4%) are marked active. 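Raw plate light values, not normalised; calls rest on replicate z-scores that were not deposited; hits include reporter decreases as well as increases.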 Reagent sequences are not shown. Not stated in the record: the amount of reagent, the time to read-out.

Or67a (Odorant receptor 67a) [DRSC11240] showed firefly Hh reporter signal, replicate 1 = 29308; firefly Hh reporter signal, replicate 2 = 42556; firefly Hh reporter signal, replicate 3 = 72512; Renilla reference signal, replicate 1 = 4506; Renilla reference signal, replicate 2 = 5354; inactive. Against COX2 (retired record) [DRSC21276], the entry reads firefly Hh reporter signal, replicate 1 = 71392; firefly Hh reporter signal, replicate 2 = 2.33e5; Renilla reference signal, replicate 1 = 1672; Renilla reference signal, replicate 2 = 10009; inactive. Against CR31958 (pseudo) [DRSC00282], the values are firefly Hh reporter signal, replicate 1 = 1.90e5; firefly Hh reporter signal, replicate 2 = 77079; Renilla reference signal, replicate 1 = 4608; Renilla reference signal, replicate 2 = 7530; inactive. For Ccdc58 (Coiled-coil domain-containing 58) [DRSC10218], the entry reads firefly Hh reporter signal, replicate 1 = 99584; firefly Hh reporter signal, replicate 2 = 68128; Renilla reference signal, replicate 1 = 3921; Renilla reference signal, replicate 2 = 2733; inactive. v (vermilion) [DRSC20383] scored firefly Hh reporter signal, replicate 1 = 1.02e5; firefly Hh reporter signal, replicate 2 = 64187; Renilla reference signal, replicate 1 = 2370; Renilla reference signal, replicate 2 = 1481; inactive. Silencing of Gld (Glucose dehydrogenase) [DRSC12595] gave: firefly Hh reporter signal, replicate 1 = 77769; firefly Hh reporter signal, replicate 2 = 94219; Renilla reference signal, replicate 1 = 3879; Renilla reference signal, replicate 2 = 3141; inactive.

Against CG6834 [DRSC16125], the values are firefly Hh reporter signal, replicate 1 = 70626; firefly Hh reporter signal, replicate 2 = 1.13e5; Renilla reference signal, replicate 1 = 2493; Renilla reference signal, replicate 2 = 3171; inactive. With knock-down of Targ (Tarag) [DRSC06206] the results were firefly Hh reporter signal, replicate 1 = 79090; firefly Hh reporter signal, replicate 2 = 27163; Renilla reference signal, replicate 1 = 2387; Renilla reference signal, replicate 2 = 2586; inactive. CG8851 [DRSC00718] showed firefly Hh reporter signal, replicate 1 = 1.10e5; firefly Hh reporter signal, replicate 2 = 53472; Renilla reference signal, replicate 1 = 2921; Renilla reference signal, replicate 2 = 5306; inactive. For alpha-Cat (alpha Catenin) [DRSC11917] the deposit lists firefly Hh reporter signal, replicate 1 = 1.68e5; firefly Hh reporter signal, replicate 2 = 5.41e5; firefly Hh reporter signal, replicate 3 = 1.10e5; Renilla reference signal, replicate 1 = 6212; Renilla reference signal, replicate 2 = 34304; inactive. After knock-down of CG14572 [DRSC11733] the results were firefly Hh reporter signal, replicate 1 = 1.37e5; firefly Hh reporter signal, replicate 2 = 1.36e5; Renilla reference signal, replicate 1 = 4517; Renilla reference signal, replicate 2 = 7665; inactive. Silencing of Gem2 (Gemin 2) [DRSC09721] gave: firefly Hh reporter signal, replicate 1 = 77217; firefly Hh reporter signal, replicate 2 = 59936; Renilla reference signal, replicate 1 = 3184; Renilla reference signal, replicate 2 = 2305; inactive.

Sorted by “Renilla reference signal, replicate 2” (low to high): some entries from above.
Targ (Tarag) [DRSC06206] | firefly Hh reporter signal, replicate 1 = 79090; firefly Hh reporter signal, replicate 2 = 27163; Renilla reference signal, replicate 1 = 2387; Renilla reference signal, replicate 2 = 2586; outcome = inactive
CG8851 [DRSC00718] | firefly Hh reporter signal, replicate 1 = 1.10e5; firefly Hh reporter signal, replicate 2 = 53472; Renilla reference signal, replicate 1 = 2921; Renilla reference signal, replicate 2 = 5306; outcome = inactive
